Experimental data: the supplement of paper PMC4604168 (melanoma cell lines)
The list shows a part of the results. Many values rest on one well or one pass, so single values are uncertain.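 The apoptosis fraction was the count of cleaved-PARP antibody-stained nuclei relative to all DNA-stained nuclei, imaged in 1,536-well plates. Screening doses were set so most cells survived, and baseline and induced cleaved-PARP levels vary greatly across cell lines.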

test system: COLO800; assay: cleaved PARP positive nuclei fraction relative to DMSO control; melanoma cells; higher = more apoptosis; conditions: library dose: low library concentration; 72 h

Compound	cleaved PARP positive nuclei fraction
Cn1c(=O)n(-c2ccc(C(C)(C)C#N)cc2)c2c3cc(-c4cnc5ccccc5c4)ccc3ncc21 + CN1CCN(c2ccc3nc(-c4c(N)c5c(F)cccc5[nH]c4=O)[nH]c3c2)CC1 [Dovitinib] (first compound 0.004 µM, partner dose 0.1 µM)	99.4%
O=C(O)c1ccc2c(c1)nc(Nc1cccc(Cl)c1)c1ccncc12 + COc1ccc(Cl)c(Nc2nc3ccccc3nc2NS(=O)(=O)c2cccc(NC(=O)C(C)(C)N)c2)c1 [XL147] (first compound 0.4 µM, partner dose 0.8 µM)	75.7%
CNC(=O)c1cc(Oc2ccc(NC(=O)Nc3ccc(Cl)c(C(F)(F)F)c3)cc2)ccn1 [sorafenib] + OCc1c[nH]c2ccccc12 [Indole-3-carbinol] (first compound 0.4 µM, partner dose 0.8 µM)	78.1%
CO[C@H]1C[C@@H]2CC[C@@H](C)[C@@](O)(O2)C(=O)C(=O)N2CCCC[C@H]2C(=O)O[C@H]([C@H](C)C[C@@H]2CC[C@@H](OCCO)[C@H](OC)C2)CC(=O)[C@H](C)/C=C(\C)[C@@H](O)[C@@H](OC)C(=O)[C@H](C)C[C@H](C)/C=C/C=C/C=C/1C [everolimus] + O=C(O)c1ccc2c(c1)nc(Nc1cccc(Cl)c1)c1ccncc12 [CX4945] (first compound 0.02 µM, partner dose 0.4 µM)	127%
Cn1c(=O)n(-c2ccc(C(C)(C)C#N)cc2)c2c3cc(-c4cnc5ccccc5c4)ccc3ncc21 + O=C(O)c1ccc2c(c1)nc(Nc1cccc(Cl)c1)c1ccncc12 [CX4945] (first compound 0.004 µM, partner dose 0.4 µM)	148%
CNC(=O)c1cc(Oc2ccc(NC(=O)Nc3ccc(Cl)c(C(F)(F)F)c3)cc2)ccn1 [sorafenib] + Cn1c(Nc2ccc(C(F)(F)F)cc2)nc2cc(Oc3ccnc(-c4ncc(C(F)(F)F)[nH]4)c3)ccc21 [CHIR265] (first compound 0.4 µM, partner dose 0.08 µM)	90.6%
Cc1cc(Nc2cc(N3CCN(C)CC3)nc(/C=C/c3ccccc3)n2)n[nH]1 + NC1(c2ccc(-c3nc4ccn5c(=O)[nH]nc5c4cc3-c3ccccc3)cc2)CCC1 [MK2206] (first compound 0.04 µM, partner dose 0.4 µM)	142%
CC(C)C[C@H](NC(=O)[C@H](Cc1ccccc1)NC(=O)c1cnccn1)B(O)O [Bortezomib] + CS(=O)(=O)CCNCc1ccc(-c2ccc3ncnc(Nc4ccc(OCc5cccc(F)c5)c(Cl)c4)c3c2)o1 [lapatinib] (first compound 0.001 µM, partner dose 0.8 µM)	70.3%
CO[C@H]1C[C@@H]2CC[C@@H](C)[C@@](O)(O2)C(=O)C(=O)N2CCCC[C@H]2C(=O)O[C@H]([C@H](C)C[C@@H]2CC[C@@H](OCCO)[C@H](OC)C2)CC(=O)[C@H](C)/C=C(\C)[C@@H](O)[C@@H](OC)C(=O)[C@H](C)C[C@H](C)/C=C/C=C/C=C/1C [everolimus] + Cn1nnc2c(C(N)=O)ncn2c1=O [temozolomide] (first compound 0.02 µM, partner dose 2 µM)	225%
O=C(O)[C@@H]1[O][Sb](=[O])([O][Sb]2(=[O])[O][C@H]([C@H](O)CO)[C@H](O)[C@H](C(=O)O)[O]2)[O][C@H]([C@H](O)CO)[C@@H]1O (some centres not stated) [stibogluconate] + C#Cc1cccc(Nc2ncnc3cc(OCCOC)c(OCCOC)cc23)c1 [erlotinib] (first compound 2 µM, partner dose 0.8 µM)	59.4%
C=C(c1ccc(C(=O)O)cc1)c1cc2c(cc1C)C(C)(C)CCC2(C)C [Bexarotene] + Nc1nc(F)nc2c1ncn2[C@@H]1O[C@H](CO)[C@@H](O)[C@@H]1O [fludarabine] (first compound 2 µM, partner dose 0.2 µM)	76.2%
CNC(=O)c1cc(Oc2ccc(NC(=O)Nc3ccc(Cl)c(C(F)(F)F)c3)cc2)ccn1 [sorafenib] + C=CCNC1=C2C[C@@H](C)C[C@H](OC)[C@H](O)[C@@H](C)/C=C(\C)[C@H](OC(N)=O)[C@@H](OC)/C=C\C=C(/C)C(=O)NC(=CC1=O)C2=O [Tanespimycin] (first compound 0.4 µM, partner dose 0.002 µM)	109%
Cn1c(=O)n(-c2ccc(C(C)(C)C#N)cc2)c2c3cc(-c4cnc5ccccc5c4)ccc3ncc21 + Nc1ncn([C@H]2C[C@H](O)[C@@H](CO)O2)c(=O)n1 [decitabine] (first compound 0.004 µM, partner dose 0.1 µM)	137%
CC(C)C[C@H](NC(=O)[C@H](Cc1ccccc1)NC(=O)c1cnccn1)B(O)O [Bortezomib] + C=C(c1ccc(C(=O)O)cc1)c1cc2c(cc1C)C(C)(C)CCC2(C)C [Bexarotene] (first compound 0.001 µM, partner dose 2 µM)	139%
CCCS(=O)(=O)Nc1ccc(F)c(C(=O)c2c[nH]c3ncc(Cl)cc23)c1F + COCC[n+]1c2c(n(Cc3cnccn3)c1C)C(=O)c1ccccc1C2=O [YM155] (first compound 0.08 µM, partner dose 0.0004 µM)	40.2%
CN1CCN(c2ccc3nc(-c4c(N)c5c(F)cccc5[nH]c4=O)[nH]c3c2)CC1 [Dovitinib] + Cn1c(Nc2ccc(C(F)(F)F)cc2)nc2cc(Oc3ccnc(-c4ncc(C(F)(F)F)[nH]4)c3)ccc21 [CHIR265] (first compound 0.1 µM, partner dose 0.08 µM)	109%
Cn1c(=O)n(-c2ccc(C(C)(C)C#N)cc2)c2c3cc(-c4cnc5ccccc5c4)ccc3ncc21 + Cn1nnc2c(C(N)=O)ncn2c1=O [temozolomide] (first compound 0.004 µM, partner dose 2 µM)	53.3%
CC(C)C[C@H](NC(=O)[C@H](Cc1ccccc1)NC(=O)c1cnccn1)B(O)O [Bortezomib] + C[C@@H](Oc1cc(-c2cnn(C3CCNCC3)c2)cnc1N)c1c(Cl)ccc(F)c1Cl [Crizotinib] (first compound 0.001 µM, partner dose 0.2 µM)	136%
O=C(O)[C@@H]1[O][Sb](=[O])([O][Sb]2(=[O])[O][C@H]([C@H](O)CO)[C@H](O)[C@H](C(=O)O)[O]2)[O][C@H]([C@H](O)CO)[C@@H]1O (some centres not stated) [stibogluconate] + OCc1c[nH]c2ccccc12 [Indole-3-carbinol] (first compound 2 µM, partner dose 0.8 µM)	132%
C=C(c1ccc(C(=O)O)cc1)c1cc2c(cc1C)C(C)(C)CCC2(C)C [Bexarotene] + Cn1nnc2c(C(N)=O)ncn2c1=O [temozolomide] (first compound 2 µM, partner dose 2 µM)	74.7%
Nc1ncn([C@H]2C[C@H](O)[C@@H](CO)O2)c(=O)n1 [decitabine] + C[C@]1(c2nc3c(C(N)=O)cccc3[nH]2)CCCN1 [Veliparib] (first compound 0.1 µM, partner dose 1.4 µM)	125%
CN1CCN(c2ccc3nc(-c4c(N)c5c(F)cccc5[nH]c4=O)[nH]c3c2)CC1 [Dovitinib] + Nc1nc(F)nc2c1ncn2[C@@H]1O[C@H](CO)[C@@H](O)[C@@H]1O [fludarabine] (first compound 0.1 µM, partner dose 0.2 µM)	84.2%
CO[C@H]1C[C@@H]2CC[C@@H](C)[C@@](O)(O2)C(=O)C(=O)N2CCCC[C@H]2C(=O)O[C@H]([C@H](C)C[C@@H]2CC[C@@H](OCCO)[C@H](OC)C2)CC(=O)[C@H](C)/C=C(\C)[C@@H](O)[C@@H](OC)C(=O)[C@H](C)C[C@H](C)/C=C/C=C/C=C/1C [everolimus] + Clc1ccc(Nc2nnc(Cc3ccncc3)c3ccccc23)cc1 [vatalanib] (first compound 0.02 µM, partner dose 2 µM)	86.8%
CO[C@H]1C[C@@H]2CC[C@@H](C)[C@@](O)(O2)C(=O)C(=O)N2CCCC[C@H]2C(=O)O[C@H]([C@H](C)C[C@@H]2CC[C@@H](OCCO)[C@H](OC)C2)CC(=O)[C@H](C)/C=C(\C)[C@@H](O)[C@@H](OC)C(=O)[C@H](C)C[C@H](C)/C=C/C=C/C=C/1C [everolimus] + C#Cc1cccc(Nc2ncnc3cc(OCCOC)c(OCCOC)cc23)c1 [erlotinib] (first compound 0.02 µM, partner dose 0.8 µM)	64.3%
CS(=O)(=O)CCNCc1ccc(-c2ccc3ncnc(Nc4ccc(OCc5cccc(F)c5)c(Cl)c4)c3c2)o1 [lapatinib] + OCc1c[nH]c2ccccc12 [Indole-3-carbinol] (first compound 0.8 µM, partner dose 0.8 µM)	160%
C[C@@H](Oc1cc(-c2cnn(C3CCNCC3)c2)cnc1N)c1c(Cl)ccc(F)c1Cl [Crizotinib] + Nc1ccn([C@@H]2O[C@H](CO)[C@@H](O)C2(F)F)c(=O)n1 [gemcitabine] (first compound 0.2 µM, partner dose 0.0004 µM)	71%
O=C(O)[C@@H]1[O][Sb](=[O])([O][Sb]2(=[O])[O][C@H]([C@H](O)CO)[C@H](O)[C@H](C(=O)O)[O]2)[O][C@H]([C@H](O)CO)[C@@H]1O (some centres not stated) [stibogluconate] + COc1ccc(Cl)c(Nc2nc3ccccc3nc2NS(=O)(=O)c2cccc(NC(=O)C(C)(C)N)c2)c1 [XL147] (first compound 2 µM, partner dose 0.8 µM)	79%

2 entries from above, bar-delimited.
Compound | cleaved PARP positive nuclei fraction
CNC(=O)c1cc(Oc2ccc(NC(=O)Nc3ccc(Cl)c(C(F)(F)F)c3)cc2)ccn1 [sorafenib] + OCc1c[nH]c2ccccc12 [Indole-3-carbinol] (first compound 0.4 µM, partner dose 0.8 µM) | 78.1%
CO[C@H]1C[C@@H]2CC[C@@H](C)[C@@](O)(O2)C(=O)C(=O)N2CCCC[C@H]2C(=O)O[C@H]([C@H](C)C[C@@H]2CC[C@@H](OCCO)[C@H](OC)C2)CC(=O)[C@H](C)/C=C(\C)[C@@H](O)[C@@H](OC)C(=O)[C@H](C)C[C@H](C)/C=C/C=C/C=C/1C [everolimus] + O=C(O)c1ccc2c(c1)nc(Nc1cccc(Cl)c1)c1ccncc12 [CX4945] (first compound 0.02 µM, partner dose 0.4 µM) | 127%
